Record: PubChem BioAssay AID1224829 (NIAID, 2016)

- Screen: 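Genes needed for LPS-driven NF-kappaB p65 nuclear entry in mouse macrophages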 (follow-up of hits)
- Cell system: mouse RAW264.7 G9 macrophage reporter cells
- Knock-down reagent: single siRNA against mouse genes, 100 nM
- Time to read-out: 2 days of siRNA knock-down, then 40 min of LPS before fixing
- Conditions: LPS (Salmonella minnesota R595) at 10 ng/ml
- Measurement: 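High-content images after 40 min LPS exposure; GFP-p65 nucleus to surrounding ring signal ratio, normalised to plate median and non-targeting control wells, expressed as z-score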
- Direction: p65 translocation z-score and gene median z-score, per vendor: higher = more nuclear NF-kappaB p65 after LPS
- Call rule: 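Active means the replicate-mean z-score lies beyond plus or minus 2, in either direction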
- Meaning of the calls: active = changed p65 translocation (either direction); inactive = no clear change
This is an unselected part of about 3,800 reagents tested. 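Calls cover raised and lowered translocation; gene median uses one vendor's three siRNAs; qiagen siRNAs acted more weakly than ambion siRNAs.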 The numbers tell different reagents against one gene apart.

target gene | siRNA no. | siRNA vendor or control pool | p65 translocation z-score, replicate mean | p65 translocation z-score, replicate 1 | p65 translocation z-score, replicate 2 | gene median z-score, per vendor | call
Ttc29 (GeneID 73301) | 1 | ambion single siRNA | -1.63 | -1.24 | -2.02 | -1.65 | inactive
Ttc29 (GeneID 73301) | 2 | ambion single siRNA | -1.67 | -1.68 | -1.65 | -1.65 | inactive
Ttc29 (GeneID 73301) | 3 | ambion single siRNA | -1.63 | -1.63 | – | -1.65 | inactive
Ttc29 (GeneID 73301) | 4 | qiagen single siRNA | 3.68 | 2.02 | 5.33 | 0.846 | active
Ttc29 (GeneID 73301) | 5 | qiagen single siRNA | 0.738 | -0.809 | 2.28 | 0.846 | inactive
Ttc29 (GeneID 73301) | 6 | qiagen single siRNA | -1.87 | -3.41 | -0.331 | 0.846 | inactive
Apool (GeneID 68117) | 1 | ambion single siRNA | -0.74 | -1.16 | -0.315 | -0.74 | inactive
Apool (GeneID 68117) | 2 | ambion single siRNA | 0.811 | -0.282 | 1.9 | -0.74 | inactive
Apool (GeneID 68117) | 3 | ambion single siRNA | -6.62 | -5.91 | -7.33 | -0.74 | active
Apool (GeneID 68117) | 4 | qiagen single siRNA | -1.97 | -2.2 | -1.75 | -0.691 | inactive
Apool (GeneID 68117) | 5 | qiagen single siRNA | -0.47 | -0.691 | -0.25 | -0.691 | inactive
Apool (GeneID 68117) | 6 | qiagen single siRNA | 1.54 | 1.54 | – | -0.691 | inactive
Cetn3 (GeneID 12626) | 1 | ambion single siRNA | -3.82 | -3.36 | -4.29 | -2.32 | active
Cetn3 (GeneID 12626) | 2 | ambion single siRNA | 2.52 | 2.52 | – | -2.32 | active
Cetn3 (GeneID 12626) | 3 | ambion single siRNA | -1.29 | -1.29 | – | -2.32 | inactive
Cetn3 (GeneID 12626) | 4 | qiagen single siRNA | 2 | 1.39 | 2.61 | 2 | inactive
Cetn3 (GeneID 12626) | 5 | qiagen single siRNA | 3.94 | 2.85 | 5.04 | 2 | active
Cetn3 (GeneID 12626) | 6 | qiagen single siRNA | -2.56 | -1.93 | -3.18 | 2 | active
Psors1c2 (GeneID 57390) | 1 | ambion single siRNA | 0.304 | 0.491 | 0.118 | -1.66 | inactive
Psors1c2 (GeneID 57390) | 2 | ambion single siRNA | -2.23 | -1.36 | -3.1 | -1.66 | active
Psors1c2 (GeneID 57390) | 3 | ambion single siRNA | -2.45 | -1.96 | -2.95 | -1.66 | active
Psors1c2 (GeneID 57390) | 4 | qiagen single siRNA | 1.55 | 0.632 | 2.48 | -0.736 | inactive
Psors1c2 (GeneID 57390) | 5 | qiagen single siRNA | -0.736 | -0.596 | -0.875 | -0.736 | inactive
Psors1c2 (GeneID 57390) | 6 | qiagen single siRNA | -3.26 | -2.96 | -3.56 | -0.736 | active
Cct7 (GeneID 12468) | 1 | ambion single siRNA | -7.08 | -7.11 | -7.05 | -4.17 | active
Cct7 (GeneID 12468) | 2 | ambion single siRNA | -4.17 | -4.17 | – | -4.17 | active
Cct7 (GeneID 12468) | 3 | ambion single siRNA | -0.328 | -0.97 | 0.314 | -4.17 | inactive
Cct7 (GeneID 12468) | 4 | qiagen single siRNA | -0.429 | -0.432 | -0.427 | -0.429 | inactive
Cct7 (GeneID 12468) | 5 | qiagen single siRNA | -1.29 | -1.3 | -1.28 | -0.429 | inactive
Cct7 (GeneID 12468) | 6 | qiagen single siRNA | 0.415 | -0.103 | 0.932 | -0.429 | inactive

Single entries from the entries so far:
Value of Apool (GeneID 68117) #3, siRNA vendor or control pool ambion single siRNA under “p65 translocation z-score, replicate 1”: -5.91
Result for Cct7 (GeneID 12468) #2, siRNA vendor or control pool ambion single siRNA under “p65 translocation z-score, replicate 1”: -4.17
Result of Psors1c2 (GeneID 57390) #6, siRNA vendor or control pool qiagen single siRNA under “call”: active
Entry of Cct7 (GeneID 12468) #4, siRNA vendor or control pool qiagen single siRNA in “gene median z-score, per vendor”: -0.429
Apool (GeneID 68117) #2, siRNA vendor or control pool ambion single siRNA, call → inactive
Entry for Cetn3 (GeneID 12626) #4, siRNA vendor or control pool qiagen single siRNA in “gene median z-score, per vendor”: 2

The listing continues.
target gene | siRNA no. | siRNA vendor or control pool | p65 translocation z-score, replicate mean | p65 translocation z-score, replicate 1 | p65 translocation z-score, replicate 2 | gene median z-score, per vendor | call
Drap1 (GeneID 66556) | 1 | ambion single siRNA | -1.37 | -0.625 | -2.12 | -1.55 | inactive
Drap1 (GeneID 66556) | 2 | ambion single siRNA | 0.696 | 2.36 | -0.972 | -1.55 | inactive
Drap1 (GeneID 66556) | 3 | ambion single siRNA | -4.12 | -3.38 | -4.86 | -1.55 | active
Drap1 (GeneID 66556) | 4 | qiagen single siRNA | 0.526 | 0.932 | 0.12 | -0.0974 | inactive
Drap1 (GeneID 66556) | 5 | qiagen single siRNA | -1.52 | -0.349 | -2.68 | -0.0974 | inactive
Drap1 (GeneID 66556) | 6 | qiagen single siRNA | -0.0438 | 0.227 | -0.315 | -0.0974 | inactive
Fat4 (GeneID 329628) | 1 | ambion single siRNA | 0.214 | 0.637 | -0.208 | -2.68 | inactive
Fat4 (GeneID 329628) | 2 | ambion single siRNA | -2.68 | -3.54 | -1.81 | -2.68 | active
Fat4 (GeneID 329628) | 3 | ambion single siRNA | -5.01 | -4.59 | -5.43 | -2.68 | active
Fat4 (GeneID 329628) | 4 | qiagen single siRNA | 0.952 | 0.422 | 1.48 | 0.939 | inactive
Fat4 (GeneID 329628) | 5 | qiagen single siRNA | 1.61 | 1.46 | 1.76 | 0.939 | inactive
Fat4 (GeneID 329628) | 6 | qiagen single siRNA | 0.16 | -0.0964 | 0.416 | 0.939 | inactive
Cdx1 (GeneID 12590) | 1 | ambion single siRNA | -6.72 | -7.5 | -5.94 | -5.67 | active
Cdx1 (GeneID 12590) | 2 | ambion single siRNA | -4.87 | -4.34 | -5.39 | -5.67 | active
Cdx1 (GeneID 12590) | 3 | ambion single siRNA | – | – | – | -5.67 | inactive
Cdx1 (GeneID 12590) | 4 | qiagen single siRNA | 2.14 | 1.85 | 2.44 | 1.82 | active
Cdx1 (GeneID 12590) | 5 | qiagen single siRNA | 2.55 | 1.79 | 3.31 | 1.82 | active
Cdx1 (GeneID 12590) | 6 | qiagen single siRNA | -2.11 | -1.77 | -2.44 | 1.82 | active
Ssh3 (GeneID 245857) | 1 | ambion single siRNA | 1.09 | 1.03 | 1.14 | -1.62 | inactive
Ssh3 (GeneID 245857) | 2 | ambion single siRNA | -1.62 | -2.35 | -0.881 | -1.62 | inactive
Ssh3 (GeneID 245857) | 3 | ambion single siRNA | -2.62 | -2.67 | -2.58 | -1.62 | active
Ssh3 (GeneID 245857) | 4 | qiagen single siRNA | -1.81 | -1.81 | – | -2.18 | inactive
Ssh3 (GeneID 245857) | 5 | qiagen single siRNA | -1.01 | -2.55 | 0.535 | -2.18 | inactive
Ssh3 (GeneID 245857) | 6 | qiagen single siRNA | -4.51 | -4.51 | – | -2.18 | active
